The source of these data is PubChem BioAssay AID1241 (SRMLSC, 2008).

The campaign covered roughly 1,200 compounds. About 840 (70%) were called active. No rule for the calls is given here. So high a share suggests a set chosen from earlier hits. Only a part is listed here, and it is no random draw. Results with a measured potency or affinity are listed apart.

This experiment can be described thus: NF-kB promoter reporter activators, neuronal cells, dose response, cell-based, SH-SY5Y, luciferase (AID 1241). The conditions noted are these: at 30 µM (top of the series).
As for `O=C(c1cc(-c2ccccc2)on1)N1CCC2(CC1)OCCO2`, the fold induction over control was inactive: 2.55.
Turning to `O=C(c1ccc(Br)cc1)C12CN3CN(CN(C3)C1)C2`, the fold induction over control was inactive: 1.09.
The figure for `CNC(=O)Oc1ccc(-c2cn3cc(Cl)ccc3n2)cc1` is inactive: 16.2.
In the case of `COc1ccc(-c2cc(=Nc3ccccc3)c3cc(C)ccc3o2)cc1`, the fold induction over control was inactive: 1.71.
As to `N=C1c2ccccc2CN1CC(=O)c1ccccc1`, the fold induction over control was inactive: 7.91.
In the case of `Cc1nc(Cl)sc1C(=O)Nc1ccc2ccccc2c1` it was inactive: 6.97.
